# PubChem BioAssay AID1259272, Sanger Institute | 2017
# Test: 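Kinase knock-downs lethal to colorectal cancer cells, with or without anchor drugs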 (primary screen)
# System: SW1116 human colorectal cancer cells
# Knock-down reagent: siRNA pool against human genes
# Treatment: anchor drugs BYL719 (1 µM), cetuximab (5 µg/ml) or trametinib (10 nM), or DMSO vehicle; exposure length not given
# Read-out: 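Replicate-averaged viability versus control-pool wells, with a robust z-score for siRNA alone and a per-drug synergy score (BYL719, cetuximab, trametinib)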
# Reading the numbers: viability z-score, no drug: higher = more cells remaining; strongly negative means essential gene; viability, no drug: higher = more viable cells; synergy score with BYL719 and synergy score with cetuximab and synergy score with trametinib: higher = stronger synthetic-lethal synergy with the drug
# Active means: 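Called essential if the drug-free knock-down gives a robust viability z-score below -3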
# Calls: active = essential (knock-down alone); inactive = no change
# Shown is one part, drawn at random, of 794 reagents tested. In the full data, 7 (0.88%) are marked active. 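Essential calls reflect knock-down without drug only, not synergy with drugs; drug exposure length not given.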 No viability above 1 is reported: the scale is capped. Not given: the amount of reagent, the time to read-out.
Target gene,"viability z-score, no drug","viability, no drug (fraction of control)",synergy score with BYL719,synergy score with cetuximab,synergy score with trametinib,Call
BUB1,0.842,1,0.0809,0.0917,-0.0338,inactive
MAPK13,-0.578,0.849,-0.0574,-0.106,0.088,inactive
ERN2,0.432,0.956,-0.0531,0.0267,0.0802,inactive
HUNK,-1.52,0.748,0.0302,0.0191,0.159,inactive
EPHB6,0.415,0.955,0.0614,0.116,0.19,inactive
AXL,0.0758,0.918,-0.0794,-0.148,-0.0334,inactive
HUS1,0.842,1,-0.0788,-0.0757,0.103,inactive
BRWD1,0.723,0.987,-0.0196,-0.065,-0.0434,inactive
KCNH8,-2.27,0.668,-0.171,-0.183,0.225,inactive
TGFBR3,0.842,1,-0.0788,0.0174,0.0101,inactive
MAPK6,0.0816,0.919,0.0239,-0.0697,0.0872,inactive
MAPK12,0.842,1,-0.0179,0.042,-0.198,inactive
HSPB8,-0.234,0.885,-0.103,0.0411,0.067,inactive
RPS6KC1,0.783,0.994,-0.0846,-0.015,0.0344,inactive
MAPK1,-0.635,0.843,0.0612,0.0502,0.0494,inactive
ADGRL2,-0.502,0.857,-0.126,-0.0797,0.0433,inactive
TSSK3,0.842,1,0.0339,-0.0747,0.0983,inactive
RFK,-1.72,0.727,-0.168,-0.291,-0.0663,inactive
IRAK1,0.842,1,0.101,0.138,0.311,inactive
FGR,-1.22,0.78,0.0682,0.0451,0.026,inactive
GRK7,0.842,1,0.0616,0.141,0.151,inactive
PANK3,0.842,1,-0.0735,-0.0515,0.0169,inactive
TRIB1,0.842,1,0.0136,-0.0757,-0.0312,inactive
FGFRL1,0.842,1,0.107,0.0216,0.0225,inactive
CDC73,0.842,1,-0.00608,0.0218,-0.0625,inactive
ROR1,0.698,0.985,0.0542,-0.052,0.017,inactive
CDKL3,0.842,1,-0.0709,0.148,0.143,inactive
MAGI1,-0.0777,0.902,-0.113,-0.0598,-0.0972,inactive
AMHR2,0.0868,0.92,-0.0353,0.0749,0.253,inactive
SLK,0.842,1,-0.0788,-0.0293,-0.0397,inactive
ULK1,0.842,1,0.0472,0.126,0.234,inactive
RSKR,0.842,1,0.0215,0.196,0.1,inactive
DBF4,0.0933,0.92,-0.0964,-0.0459,-0.0073,inactive
MAPKAPK5,0.842,1,0.0184,0.0836,0.0974,inactive
WNK1,0.842,1,0.0578,0.0621,0.214,inactive
STK25,-0.833,0.822,-0.159,-0.113,-0.0849,inactive
BMPR1A,0.842,1,0.053,-0.0217,0.105,inactive
CALM1,0.842,1,-0.0788,0.062,-0.0478,inactive
MAP4K4,0.842,1,-0.0452,-0.00279,0.125,inactive
GTF2H1,-0.857,0.819,-0.0874,0.0558,-0.00355,inactive
CAMK2N1,-1.57,0.743,0.0937,0.174,0.0833,inactive
EIF2AK3,0.726,0.988,-0.028,0.0583,-0.137,inactive
MARK2,0.842,1,-0.0701,0.117,0.0597,inactive
MAP3K12,0.842,1,0.0687,0.00908,0.147,inactive
NME4,-0.312,0.877,-0.0969,-0.105,-0.102,inactive
NRK,-0.216,0.887,-0.0278,0.0417,0.0834,inactive
MKNK2,0.842,1,0.0101,-0.0757,-0.128,inactive
ATR,-0.12,0.898,-0.173,-0.125,0.0854,inactive
RPS6KA4,0.842,1,-0.0265,-0.0315,0.243,inactive
KSR1,-2.82,0.61,-0.224,-0.0276,0.00122,inactive

In a second layout: 4 of the entries above
{"Target gene": "MAPK1", "viability z-score, no drug": -0.635, "viability, no drug (fraction of control)": 0.843, "synergy score with BYL719": 0.0612, "synergy score with cetuximab": 0.0502, "synergy score with trametinib": 0.0494, "Call": "inactive"}
{"Target gene": "ADGRL2", "viability z-score, no drug": -0.502, "viability, no drug (fraction of control)": 0.857, "synergy score with BYL719": -0.126, "synergy score with cetuximab": -0.0797, "synergy score with trametinib": 0.0433, "Call": "inactive"}
{"Target gene": "TSSK3", "viability z-score, no drug": 0.842, "viability, no drug (fraction of control)": 1, "synergy score with BYL719": 0.0339, "synergy score with cetuximab": -0.0747, "synergy score with trametinib": 0.0983, "Call": "inactive"}
{"Target gene": "RFK", "viability z-score, no drug": -1.72, "viability, no drug (fraction of control)": 0.727, "synergy score with BYL719": -0.168, "synergy score with cetuximab": -0.291, "synergy score with trametinib": -0.0663, "Call": "inactive"}
